Assay results from publication PMC11446459.
No constants are given. Whether binding was seen depends on the method and setting. For part of these data: Binding can be weak; no strength is given. Where a sequence is shown, tags or fusion partners need not be part of it.

Columns and labels:
Assay in all cases: two-hybrid; Gal4 system (Matchmaker Gold); C1-FDX, ACP1, ACP2 in pGADT7, CI and CV subunits in pGBKT7; yeast AH109; growth on SD/-Trp/-Leu/-His/-Ade/+ x-α-gal for 4 days at 30°C
[1] = target: T1, OSCP (oligomycin sensitivity-conferring protein) subunit of complex V, Gal4 DNA-binding domain fusion (Arabidopsis) (UniProt Q96251)
T1 sequence: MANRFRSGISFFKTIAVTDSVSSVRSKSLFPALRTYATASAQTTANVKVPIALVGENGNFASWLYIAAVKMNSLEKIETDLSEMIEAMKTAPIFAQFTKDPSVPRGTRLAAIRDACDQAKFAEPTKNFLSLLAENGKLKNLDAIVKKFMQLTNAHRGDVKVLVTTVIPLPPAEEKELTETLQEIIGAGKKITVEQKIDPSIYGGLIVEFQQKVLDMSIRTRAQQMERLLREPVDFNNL

[2] = target: T2, subunit d of complex V, Gal4 DNA-binding domain fusion (Arabidopsis) (UniProt Q9FT52)
T2 sequence: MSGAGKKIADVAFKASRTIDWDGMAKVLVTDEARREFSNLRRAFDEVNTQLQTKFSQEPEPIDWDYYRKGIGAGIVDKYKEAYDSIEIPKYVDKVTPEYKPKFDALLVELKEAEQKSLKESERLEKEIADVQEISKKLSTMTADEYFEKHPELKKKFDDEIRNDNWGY

[3] = target: T3, A6, Q module subunit of complex I, Gal4 DNA-binding domain fusion (Arabidopsis) (UniProt Q9LHI0)
T3 sequence: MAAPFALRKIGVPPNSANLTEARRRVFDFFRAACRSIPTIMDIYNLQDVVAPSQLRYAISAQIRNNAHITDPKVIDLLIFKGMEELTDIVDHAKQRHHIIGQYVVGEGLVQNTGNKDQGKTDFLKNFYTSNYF

[4] = target: T4, CAL1, CA module subunit of complex I, Gal4 DNA-binding domain fusion (Arabidopsis) (UniProt Q9FMV1)
T4 sequence: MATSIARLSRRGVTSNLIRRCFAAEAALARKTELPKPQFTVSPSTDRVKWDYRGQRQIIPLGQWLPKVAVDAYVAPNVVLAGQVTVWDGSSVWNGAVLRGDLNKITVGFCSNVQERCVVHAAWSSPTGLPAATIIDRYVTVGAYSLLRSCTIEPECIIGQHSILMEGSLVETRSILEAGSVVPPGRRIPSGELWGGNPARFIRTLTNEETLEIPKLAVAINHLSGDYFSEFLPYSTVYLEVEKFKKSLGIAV

[5] = target: T5, CA2, CA module subunit of complex I, Gal4 DNA-binding domain fusion (Arabidopsis) (UniProt Q9C6B3)
T5 sequence: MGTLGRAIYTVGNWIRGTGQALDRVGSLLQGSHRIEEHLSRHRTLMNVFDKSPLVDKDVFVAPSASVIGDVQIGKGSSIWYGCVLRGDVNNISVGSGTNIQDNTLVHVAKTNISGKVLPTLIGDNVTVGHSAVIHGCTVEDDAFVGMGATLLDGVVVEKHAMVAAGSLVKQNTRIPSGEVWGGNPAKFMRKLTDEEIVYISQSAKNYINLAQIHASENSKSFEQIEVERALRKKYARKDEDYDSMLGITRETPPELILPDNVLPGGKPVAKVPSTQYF

[6] = target: T6, c subunit of the Fo module of complex V, Gal4 DNA-binding domain fusion (Arabidopsis) (UniProt P60112)
T6 sequence: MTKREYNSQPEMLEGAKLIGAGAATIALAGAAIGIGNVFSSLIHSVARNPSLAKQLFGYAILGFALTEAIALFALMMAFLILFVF

[7] = target: T7, ACP2, Gal4 DNA-binding domain fusion (Arabidopsis) (UniProt O80800)
T7 sequence: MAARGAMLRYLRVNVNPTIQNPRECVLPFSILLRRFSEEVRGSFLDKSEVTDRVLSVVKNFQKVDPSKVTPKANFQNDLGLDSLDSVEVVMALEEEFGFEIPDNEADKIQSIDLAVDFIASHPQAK

[8] = target: T8, ACP1, Gal4 DNA-binding domain fusion (Arabidopsis) (UniProt P53665)
T8 sequence: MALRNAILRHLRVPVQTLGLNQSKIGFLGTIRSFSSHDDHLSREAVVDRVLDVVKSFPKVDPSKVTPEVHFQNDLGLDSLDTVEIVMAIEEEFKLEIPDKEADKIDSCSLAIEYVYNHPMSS

[9] = target: T9, ε subunit of the F1 module of complex V, Gal4 DNA-binding domain fusion (Arabidopsis) (UniProt Q96253)
T9 sequence: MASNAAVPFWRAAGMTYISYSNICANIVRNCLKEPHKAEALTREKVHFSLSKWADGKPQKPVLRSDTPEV

binding [1]: no binding | binding [2]: no binding | binding [6]: no binding | binding [7]: binds | binding [8]: binds weakly | binding [9]: binds
Substance: C1-FDX (Complex I-ferredoxin), Gal4 activation domain fusion (Arabidopsis)
binding [3]: binds | binding [4]: binds | binding [5]: binds
